The assay concerns the target FFA1 Y114A of the arrestin-3 interaction assays (eYFP-labelled) (human) (UniProt O14842). In words: FRET or BRET; arrestin-3 interaction (recruitment) assay of FFA1 wild type and Y114A, DHA concentration-response curves; receptor expression by eYFP fluorescence.

By UniProt entry, the sequences of proteins in these tests, tags left out. Where a name states a change or a piece, a line headed by the entry shows the natural chain unless it says otherwise.
UniProt O14842: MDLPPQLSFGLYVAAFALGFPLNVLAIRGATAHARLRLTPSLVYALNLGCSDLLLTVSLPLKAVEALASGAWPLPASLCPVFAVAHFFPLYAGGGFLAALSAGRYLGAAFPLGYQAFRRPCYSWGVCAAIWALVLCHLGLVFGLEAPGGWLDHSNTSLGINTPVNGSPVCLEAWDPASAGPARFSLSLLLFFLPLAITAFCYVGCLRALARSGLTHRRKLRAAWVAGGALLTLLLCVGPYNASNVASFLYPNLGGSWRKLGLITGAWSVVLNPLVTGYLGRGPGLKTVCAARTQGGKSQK

Results are given in words; binding and its absence hold for the method and conditions named. In cells and extracts the contact can be indirect. Some results given as binding are weak or reduced against the parent protein; the word gives no strength.

Consider “arrestin-3 fused to NanoLuc luciferase (from UniProt P32121 1-409)”, for which the binding result is recorded as “binds”.

Values taken from PMC10780892.
